Data reported in publication PMC6397271 (Scientific Reports, 2019).

Assay: general procedure: Fmoc solid-phase peptide synthesis; Rink-Amide TentaGel S RAM resin (0.25 mmol/g); TBTU/HOBt/NMM
Settings: conjugation step

Going from “AGYLLGKINLKALAALAKKIL-Ala(Tra(1,4)-PEG4-C(O)-Van)-amide” to “AGYLLGK^7(C(O)-Tra(1,4)-PEG4-C(O)-Van)INLKALAALAKKIL-amide”, the conjugation yield falls from 76% to 58%.

First: Fl-AGYLLGK^7(C(O)-Tra(1,4)-PEG4-C(O)-Van)INLKALAALAKKIL-amide
Second: Van-C(O)-PEG4-Tra(1,4)-C(O)-AGYLLGKINLKALAALAKKIL-amide
The conjugation yield of the first is lower: 24% for the first, 85% for the second.

Work on “Van-NH-PEG3-Tra(1,4)-C(O)-AGYLLGKINLKALAALAKKIL-amide” yielded a conjugation yield of 47%.
